Test results taken from patent publication US7906486B2, “Method of treating or preventing tissue deterioration, injury or damage due to disease of mucosa” (SciClone Pharmaceuticals, Inc., priority 2007, dated 2011).
Several values for one entry are separate records, joined by “and”; a condition that tells them apart may be missing. Equal values may be shown once. Further values from the same series stand in other lists.

Test: Weights and survival (Example 4, SCI-04)
Format: in vivo, Syrian Golden Hamsters
Set-up: unit not given here
Conditions: individual animals
Method: All animals were weighed daily and their survival recorded, in order to assess possible differences in animal weight among treatment groups as an indication for mucositis severity and/or possible toxicity resulting from the treatments.
There were no significant differences in weight changes between study groups. The mean daily percent weight change data was evaluated. The saline treated control hamsters gained an average of 46.5% of their starting weight during the study. Hamsters in the group receiving SCV-07 at 10 μg/kg on days −1 to 20 gained an average of 51.3% of their starting weight during the study. Hamsters in the group receiving SCV-07 at 100 μg/kg on days −1 to 20 gained an average of 46.7% of their starting weight during the study. Hamsters in the group receiving SCV-07 at 1 mg/kg from day −1 to day 20 gained an average of 48.8% of their starting weight during the study. The significance of these differences was evaluated by calculating the area-under-the-curve (AUC) for the weight gain of each animal, and then comparing the different treatment groups using a One-Way ANOVA test.

For N[C@H](CCC(=O)N[C@@H](Cc1c[nH]c2ccccc12)C(=O)O)C(=O)O [SCV-07, γ-D-glutamyl-L-tryptophan], which Animal weight (Group 2 (SCV-07 10 μg/kg, day −1 to day 20), day 0) is on record?
The Animal weight was 72 and 78 and 90 and 92.

What about the Animal weight (Group 2 (SCV-07 10 μg/kg, day −1 to day 20), day 1) of the same molecule?
Its Animal weight is 70 and 75 and 87 and 90.

And the Animal weight (Group 2 (SCV-07 10 μg/kg, day −1 to day 20), day 2)?
Its Animal weight is 90 and 95.

What about the Animal weight (Group 2 (SCV-07 10 μg/kg, day −1 to day 20), day 3) of the same molecule?
The Animal weight was 81 and 91 and 96.

What about the Animal weight (Group 2 (SCV-07 10 μg/kg, day −1 to day 20), day 4) of the same molecule?
The Animal weight was 76 and 85 and 93 and 99.

And the Animal weight (Group 2 (SCV-07 10 μg/kg, day −1 to day 20), day 5)?
Its Animal weight is 81 and 85 and 94 and 100.

And the Animal weight (Group 2 (SCV-07 10 μg/kg, day −1 to day 20), day 6)?
Its Animal weight is 79 and 89 and 94 and 102.

And the Animal weight (Group 2 (SCV-07 10 μg/kg, day −1 to day 20), day 7)?
The Animal weight was 89 and 97 and 105.

And the Animal weight (Group 2 (SCV-07 10 μg/kg, day −1 to day 20), day 8)?
Its Animal weight is 98.

And the Animal weight (Group 2 (SCV-07 10 μg/kg, day −1 to day 20), day 9)?
The Animal weight was 92 and 98.

What about the Animal weight (Group 2 (SCV-07 10 μg/kg, day −1 to day 20), day 10) of the same molecule?
The Animal weight was 94 and 100 and 110.

And the Animal weight (Group 2 (SCV-07 10 μg/kg, day −1 to day 20), day 11)?
Its Animal weight is 87 and 95 and 100.

What about the Animal weight (Group 2 (SCV-07 10 μg/kg, day −1 to day 20), day 12) of the same molecule?
The Animal weight was 88 and 94 and 97 and 113.

And the Animal weight (Group 2 (SCV-07 10 μg/kg, day −1 to day 20), day 13)?
The Animal weight was 88 and 95 and 114.

What about the Animal weight (Group 2 (SCV-07 10 μg/kg, day −1 to day 20), day 14) of the same molecule?
Its Animal weight is 90 and 96 and 114.

What about the Animal weight (Group 2 (SCV-07 10 μg/kg, day −1 to day 20), day 15) of the same molecule?
Its Animal weight is 99 and 132 and 117 and 109 and 93 and 112 and 90 and 97 and 98 and 115.

What about the Animal weight (Group 2 (SCV-07 10 μg/kg, day −1 to day 20), day 16) of the same molecule?
Its Animal weight is 100 and 132 and 119 and 109 and 92 and 112 and 90 and 96 and 99 and 117.

And the Animal weight (Group 2 (SCV-07 10 μg/kg, day −1 to day 20), day 17)?
Its Animal weight is 103 (2×) and 136 and 123 and 112 and 96 (2×) and 117 and 100 and 121.

And the Animal weight (Group 2 (SCV-07 10 μg/kg, day −1 to day 20), day 18)?
Its Animal weight is 103 and 137 and 125 and 113 and 98 and 117 and 97 and 102 and 104 and 122.

What about the Animal weight (Group 2 (SCV-07 10 μg/kg, day −1 to day 20), day 19) of the same molecule?
Its Animal weight is 105 and 138 and 125 and 113 and 100 and 118 and 99 and 101 and 103 and 123.

What about the Animal weight (Group 2 (SCV-07 10 μg/kg, day −1 to day 20), day 20) of the same molecule?
Its Animal weight is 104 (2×) and 137 and 127 and 115 and 100 and 118 and 101 and 109 and 123.

And the Animal weight (Group 2 (SCV-07 10 μg/kg, day −1 to day 20), day 21)?
The Animal weight was 108 and 141 and 130 and 117 and 103 and 121 and 105 (2×) and 106 and 127.

And the Animal weight (Group 2 (SCV-07 10 μg/kg, day −1 to day 20), day 22)?
The Animal weight was 110 and 144 and 133 and 120 and 104 (2×) and 122 and 108 and 107 and 131.

What about the Animal weight (Group 2 (SCV-07 10 μg/kg, day −1 to day 20), day 23) of the same molecule?
The Animal weight was 110 and 143 and 133 and 121 and 104 and 123 and 106 and 108 (2×) and 129.

What about the Animal weight (Group 2 (SCV-07 10 μg/kg, day −1 to day 20), day 24) of the same molecule?
The Animal weight was 114 and 148 and 139 and 123 and 105 and 126 and 109 and 111 (2×) and 134.

And the Animal weight (Group 2 (SCV-07 10 μg/kg, day −1 to day 20), day 25)?
The Animal weight was 115 and 150 and 139 and 124 and 108 and 126 and 113 (2×) and 112 and 136.

What about the Animal weight (Group 2 (SCV-07 10 μg/kg, day −1 to day 20), day 26) of the same molecule?
Its Animal weight is 117 and 151 and 140 and 126 and 109 and 129 and 114 and 116 and 115 and 137.

And the Animal weight (Group 2 (SCV-07 10 μg/kg, day −1 to day 20), day 27)?
Its Animal weight is 117 and 152 and 145 and 127 and 110 and 128 and 114 (2×) and 113 and 138.

What about the Animal weight (Group 2 (SCV-07 10 μg/kg, day −1 to day 20), day 28) of the same molecule?
The Animal weight was 119 and 156 and 146 and 130 and 113 and 132 and 117 and 116 and 115 and 143.

And the Animal weight (Group 2 (SCV-07 10 μg/kg, day −1 to day 20), day −1)?
Its Animal weight is 74 and 80 and 91 and 92.

What about the Animal weight (Group 3 (SCV-07 100 μg/kg, day −1 to day 20), day 0) of the same molecule?
Its Animal weight is 84 and 80 and 86 and 102 and 76 and 91 and 103 and 96 and 82 and 78.

And the Animal weight (Group 3 (SCV-07 100 μg/kg, day −1 to day 20), day 1)?
The Animal weight was 87 and 75 and 83 and 99 and 73 and 88 and 102 and 91 and 84 and 74.

What about the Animal weight (Group 3 (SCV-07 100 μg/kg, day −1 to day 20), day 2) of the same molecule?
Its Animal weight is 90 (3×) and 77 and 86 and 102 and 76 (2×) and 100 and 87.

And the Animal weight (Group 3 (SCV-07 100 μg/kg, day −1 to day 20), day 3)?
The Animal weight was 94 and 81 and 88 and 106 and 82 and 91 (2×) and 108 and 101 and 78.

What about the Animal weight (Group 3 (SCV-07 100 μg/kg, day −1 to day 20), day 4) of the same molecule?
Its Animal weight is 98 and 84 and 91 (2×) and 109 and 83 and 92 and 110 and 114 and 79.

What about the Animal weight (Group 3 (SCV-07 100 μg/kg, day −1 to day 20), day 5) of the same molecule?
Its Animal weight is 99 and 86 and 93 and 113 and 84 and 95 and 115 and 105 and 94 and 81.

And the Animal weight (Group 3 (SCV-07 100 μg/kg, day −1 to day 20), day 6)?
The Animal weight was 98 and 88 and 96 and 112 and 84 and 95 and 118 and 106 and 94 and 83.

What about the Animal weight (Group 3 (SCV-07 100 μg/kg, day −1 to day 20), day 7) of the same molecule?
Its Animal weight is 100 and 87 (2×) and 95 and 116 and 96 and 119 and 107 and 97 and 86.

And the Animal weight (Group 3 (SCV-07 100 μg/kg, day −1 to day 20), day 8)?
Its Animal weight is 103 and 90 (2×) and 98 (3×) and 118 and 120 and 108 and 88.

And the Animal weight (Group 3 (SCV-07 100 μg/kg, day −1 to day 20), day 9)?
Its Animal weight is 106 and 91 and 96 and 118 and 89 and 98 and 120 and 111 and 97 and 88.

What about the Animal weight (Group 3 (SCV-07 100 μg/kg, day −1 to day 20), day 10) of the same molecule?
The Animal weight was 111 and 95 (2×) and 101 and 123 and 100 and 124 and 113 and 103 and 92.

And the Animal weight (Group 3 (SCV-07 100 μg/kg, day −1 to day 20), day 11)?
Its Animal weight is 109 and 95 and 100 (2×) and 123 and 94 (2×) and 124 and 114 and 101.

What about the Animal weight (Group 3 (SCV-07 100 μg/kg, day −1 to day 20), day 12) of the same molecule?
The Animal weight was 111 and 98 and 102 (2×) and 126 and 92 and 101 and 127 and 117 and 93.

What about the Animal weight (Group 3 (SCV-07 100 μg/kg, day −1 to day 20), day 13) of the same molecule?
Its Animal weight is 111 and 96 and 102 (2×) and 127 and 92 and 100 and 125 and 116 and 94.

What about the Animal weight (Group 3 (SCV-07 100 μg/kg, day −1 to day 20), day 14) of the same molecule?
The Animal weight was 110 and 97 and 103 and 130 and 95 and 100 and 128 and 116 and 101 and 94.
